Results are given in words; binding and its absence hold for the method and conditions named. Binding seen in cells or lysates may run through a third protein. A yes stands for co-enrichment or nearness to the bait. Other partners may have been found. Where a sequence is shown, tags or fusion partners need not be part of it.
B1: copper chaperone for SOD1 (CCS) (protein, UniProt Q9WU84 1-274)
chain: MASKSGDGGTVCALEFAVQMSCQSCVDAVHKTLKGVAGVQNVDVQLENQMVLVQTTLPSQEVQALLESTGRQAVLKGMGSSQLQNLGAAVAILEGCGSIQGVVRFLQLSSELCLIEGTIDGLEPGLHGLHVHQYGDLTRDCNSCGDHFNPDGASHGGPQDTDRHRGDLGNVRAEAGGRATFRIEDKQLKVWDVIGRSLVIDEGEDDLGRGGHPLSKITGNSGKRLACGIIARSAGLFQNPKQICSCDGLTIWEERGRPIAGQGRKDSAQPPAHL
B2: ERBB receptor feedback inhibitor 1 (ERRFI1) (protein, UniProt Q99JZ7 1-461)
chain: MSTAGVAAQDIRVPLKTGFLHNGQALGNMKSCWGSHSEFENNFLNIDPITMAYNLNSPAQEHLTTVGCAARSAPGSGHFFAECGPSPRSSLPPLVISPSESSGQREEDQVMCGFKKLSVNGVCTSTPPLTPIKSCPSPFPCAALCDRGSRPLPPLPISEDLCVDEADSEVELLTTSSDTDLLLEDSAPSDFKYDAPGRRSFRGCGQINYAYFDSPTVSVADLSCASDQNRVVPDPNPPPPQSHRRLRRSHSGPAGSFNKPAIRISSCTHRASPSSDEDKPEVPPRVPIPPRPAKPDYRRWSAEVTSNTYSDEDRPPKVPPREPLSRSNSRTPSPKSLPSYLNGVMPPTQSFAPDPKYVSSKALQRQSSEGSANKVPCILPIIENGKKVSSTHYYLLPERPPYLDKYEKYFKEAEETNPSTQIQPLPAACGMASATEKLASRMKIDMGSHGKRKHLSYVVSP
B3: transforming growth factor beta regulator 1 (TBRG1) (protein, UniProt Q3UB74 1-406)
chain: MSVLSGLASEPRTPLSSKARMKRLPRKSQNEKYRLKYLRLRRAAKATVFENASICDEIARLEEKFLKAKEERRYLLKKLLQIHALTEGEPQAAAPSHSSSLPLPYGVTSSVGTMQGAGPSTGAEEPFAKKSKKEKKEKGKENSKLEVLKKTSKKKKMEGGARKLVRPIALDPSGQPVFPIGLGGLTVYSLGEIITNRPGFHDENAIYPVGYCSTRVYASMKCPDQKCLYTCQIKDGGVQPQFEIVPEDDPQNTIVGSSADACYEELLRAISATTGKLMPNPLSCGADFFGFSHPTIHNLIQSCPEAQNCVNYQWVKFDACKPRKGQLSQELPENDATMSLEAFQTQTFDDDHDDSILPGSLDLPELQHEAFVSSYQPEFLTHEPLVDTDLQHLKSPSQCSPIQSSD
B4: SYNCRIP/HNRNPQ (protein, UniProt Q7TMK9 1-623)
chain: MATEHVNGNGTEEPMDTTSAVIHSENFQTLLDAGLPQKVAEKLDEIYVAGLVAHSDLDERAIEALKEFNEDGALAVLQQFKDSDLSHVQNKSAFLCGVMKTYRQREKQGTKVADSSKGPDEAKIKALLERTGYTLDVTTGQRKYGGPPPDSVYSGQQPSVGTEIFVGKIPRDLFEDELVPLFEKAGPIWDLRLMMDPLTGLNRGYAFVTFCTKEAAQEAVKLYNNHEIRSGKHIGVCISVANNRLFVGSIPKSKTKEQILEEFSKVTEGLTDVILYHQPDDKKKNRGFCFLEYEDHKTAAQARRRLMSGKVKVWGNVGTVEWADPIEDPDPEVMAKVKVLFVRNLANTVTEEILEKSFSQFGKLERVKKLKDYAFIHFDERDGAVKAMEEMNGKDLEGENIEIVFAKPPDQKRKERKAQRQAAKNQMYDDYYYYGPPHMPPPTRGRGRGGRGGYGYPPDYYGYEDYYDYYGYDYHNYRGGYEDPYYGYEDFQVGARGRGGRGARGAAPSRGRGAAPPRGRAGYSQRGGPGSARGVRGARGGAQQQRGRGVRGARGGRGGNVGGKRKADGYNQPDTKRRQTNNQNWGSQPIAQQPLQGGDHSGNYGYKSENQEFYQDTFGQQWK
B5: cysteine rich intestinal protein 2 (CRIP2) (protein, UniProt Q9DCT8 1-208)
chain: MASKCPKCDKTVYFAEKVSSLGKDWHKFCLKCERCNKTLTPGGHAEHDGKPFCHKPCYATLFGPKGVNIGGAGSYIYEKPQTEAPQVTGPIEVPVVRTEERKTSGPPKGPSKASSVTTFTGEPNMCPRCNKRVYFAEKVTSLGKDWHRPCLRCERCSKTLTPGGHAEHDGQPYCHKPCYGILFGPKGVNTGAVGSYIYDKDPEGTVQP
B6: SCAMP3 (protein, UniProt O35609 1-349)
chain: MAQSRDTGNPFPDSGELDNPFQDPAVIQHRPSQQYATLDVYNPFENREPPPAYEPPAPAPAPLPPPSAPSVQSSRKLSPTEPRNYGSYSTQASAAAATAELLKKQEELNRKAEELDRRERELQHVALGGAGTRQNNWPPLPSFCPVKPCFFQDISMEIPQEFQKTVSTMYYLWMCSTLALLLNFFACLARFCVDTGSGSGFGLSMLWLLLFTPCSFVCWYRPMYKAFRSDSSFNFFVFFFIFFVQDVFFVLQAIGIPGWGFSGWVTALVVVGSKPAVAVLMLLVALLFTGIAVLGIVMLKRIHSLYRQTGASFQKAQQEFAAGVFSNPAVRTAAANAAAGAAENAFRAP

Chains of the proteins cited; added tags and fusions are not shown.
UniProt Q99020: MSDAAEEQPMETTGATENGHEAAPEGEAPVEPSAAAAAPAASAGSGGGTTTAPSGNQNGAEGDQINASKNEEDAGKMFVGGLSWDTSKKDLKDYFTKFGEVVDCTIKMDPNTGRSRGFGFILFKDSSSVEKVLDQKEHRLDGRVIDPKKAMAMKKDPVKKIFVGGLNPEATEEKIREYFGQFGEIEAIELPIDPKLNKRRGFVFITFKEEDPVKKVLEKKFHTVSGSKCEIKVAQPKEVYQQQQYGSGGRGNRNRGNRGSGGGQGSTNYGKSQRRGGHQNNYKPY
UniProt Q91VH2: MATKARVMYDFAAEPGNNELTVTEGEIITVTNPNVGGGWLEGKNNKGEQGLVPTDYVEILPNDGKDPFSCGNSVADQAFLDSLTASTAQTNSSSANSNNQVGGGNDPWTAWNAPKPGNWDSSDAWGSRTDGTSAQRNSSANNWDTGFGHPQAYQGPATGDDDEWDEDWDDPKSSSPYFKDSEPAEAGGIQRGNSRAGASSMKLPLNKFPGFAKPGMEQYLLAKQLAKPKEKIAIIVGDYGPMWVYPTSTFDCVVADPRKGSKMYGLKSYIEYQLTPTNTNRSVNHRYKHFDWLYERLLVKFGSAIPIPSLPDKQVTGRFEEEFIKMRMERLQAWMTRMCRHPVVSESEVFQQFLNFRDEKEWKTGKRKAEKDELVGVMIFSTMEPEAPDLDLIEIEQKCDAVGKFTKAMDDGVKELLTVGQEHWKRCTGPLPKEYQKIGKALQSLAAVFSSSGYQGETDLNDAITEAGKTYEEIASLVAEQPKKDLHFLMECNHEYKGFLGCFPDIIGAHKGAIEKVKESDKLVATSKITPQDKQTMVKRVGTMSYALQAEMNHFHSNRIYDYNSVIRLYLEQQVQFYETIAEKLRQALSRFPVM
UniProt Q64430: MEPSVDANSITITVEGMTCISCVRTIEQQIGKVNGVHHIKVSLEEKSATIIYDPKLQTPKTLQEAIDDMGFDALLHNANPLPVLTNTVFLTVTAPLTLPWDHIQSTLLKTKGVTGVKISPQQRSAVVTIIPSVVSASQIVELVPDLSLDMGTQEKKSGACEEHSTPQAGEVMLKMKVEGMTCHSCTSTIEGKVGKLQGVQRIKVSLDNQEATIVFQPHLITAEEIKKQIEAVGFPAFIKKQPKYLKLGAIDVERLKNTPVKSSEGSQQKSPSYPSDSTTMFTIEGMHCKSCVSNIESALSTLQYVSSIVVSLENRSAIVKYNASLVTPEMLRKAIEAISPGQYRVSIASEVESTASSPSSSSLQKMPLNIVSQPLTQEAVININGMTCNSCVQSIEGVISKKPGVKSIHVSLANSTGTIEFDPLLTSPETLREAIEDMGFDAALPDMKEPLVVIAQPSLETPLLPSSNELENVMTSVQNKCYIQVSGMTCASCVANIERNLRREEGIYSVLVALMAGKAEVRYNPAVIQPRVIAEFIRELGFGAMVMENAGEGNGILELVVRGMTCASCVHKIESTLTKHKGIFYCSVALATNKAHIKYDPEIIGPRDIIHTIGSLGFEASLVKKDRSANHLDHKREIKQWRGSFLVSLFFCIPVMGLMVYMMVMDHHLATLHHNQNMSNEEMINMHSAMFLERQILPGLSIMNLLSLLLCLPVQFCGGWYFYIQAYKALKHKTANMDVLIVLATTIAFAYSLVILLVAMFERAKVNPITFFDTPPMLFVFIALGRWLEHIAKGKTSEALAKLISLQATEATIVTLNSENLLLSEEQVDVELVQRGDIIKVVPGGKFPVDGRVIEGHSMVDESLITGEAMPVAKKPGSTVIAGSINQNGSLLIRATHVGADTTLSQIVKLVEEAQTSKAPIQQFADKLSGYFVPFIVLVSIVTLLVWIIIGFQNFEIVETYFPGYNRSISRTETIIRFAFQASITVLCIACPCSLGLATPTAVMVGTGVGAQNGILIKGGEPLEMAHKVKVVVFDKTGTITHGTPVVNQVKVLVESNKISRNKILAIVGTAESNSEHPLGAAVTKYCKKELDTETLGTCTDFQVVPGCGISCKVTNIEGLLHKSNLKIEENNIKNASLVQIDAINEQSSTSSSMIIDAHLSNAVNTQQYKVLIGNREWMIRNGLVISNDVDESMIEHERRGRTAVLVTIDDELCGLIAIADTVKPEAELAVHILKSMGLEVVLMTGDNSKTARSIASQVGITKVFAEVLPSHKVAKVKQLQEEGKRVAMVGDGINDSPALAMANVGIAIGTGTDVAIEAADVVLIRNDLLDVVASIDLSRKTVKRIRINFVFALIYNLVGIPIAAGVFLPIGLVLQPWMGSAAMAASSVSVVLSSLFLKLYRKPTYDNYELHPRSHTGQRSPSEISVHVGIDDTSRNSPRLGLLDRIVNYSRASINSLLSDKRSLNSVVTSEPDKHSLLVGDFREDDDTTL

Assays:
[1] = molecular target: T1, APEX2-ATOX1 fusion construct (3x Flag-APEX2-3x Myc-human ATOX1) (human) (UniProt O00244); experiment: proximity labelling; APEX2-ATOX1 induced with doxycycline in C2C12 myoblasts, myocytes and myotubes; 2.5 mM biotin-phenol, 0.75 mM H2O2 for 1 min; streptavidin capture from RIPA lysates; label-free nanoLC-MS/MS; cells without biotin phenol as negative controls; three experiments per state
T1 sequence: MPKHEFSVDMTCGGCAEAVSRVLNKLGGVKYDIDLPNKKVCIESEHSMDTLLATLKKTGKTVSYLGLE

[2] = molecular target: T1, APEX2-ATOX1 fusion construct (3x Flag-APEX2-3x Myc-human ATOX1) (human); experiment: proximity labelling; APEX2-ATOX1 in C2C12 myoblasts, myocytes and myotubes; streptavidin bead eluates eluted with urea containing buffer without boiling, probed by immunoblot; cells without biotin phenol as negative controls
[3] = molecular target: T1, APEX2-ATOX1 fusion construct (3x Flag-APEX2-3x Myc-human ATOX1) (human); experiment: proximity labelling; APEX2-ATOX1 in C2C12 myoblasts, myocytes and myotubes; biotin-phenol and H2O2 labelling; streptavidin bead eluates probed by immunoblot; cells without biotin phenol as negative controls
[4] = molecular target: T1, APEX2-ATOX1 fusion construct (3x Flag-APEX2-3x Myc-human ATOX1) (human); experiment: proximity labelling; APEX2-ATOX1 induced with doxycycline in C2C12 myoblasts, myocytes and myotubes; 2.5 mM biotin-phenol, 0.75 mM H2O2 for 1 min; streptavidin capture from RIPA lysates; label-free nanoLC-MS/MS; cells without biotin phenol as negative controls; three experiments per state; remark: listed apart in the source

| Molecule | binding [4] | other results |
| --- | --- | --- |
| HNRNPAB (from UniProt Q99020 1-285) |  | binding [1]: binds |
| SNX9 (from UniProt Q91VH2 1-595) |  | binding [1]: binds |
| ATP7A (from UniProt Q64430 1-1491) |  | binding [2]: binds |
| B1 |  | binding [3]: binds |
| B2 | binds |  |
| B3 | binds |  |
| B4 | binds |  |
| B5 | binds | binding [3]: binds |
| B6 | binds |  |

Source: paper doi:10.1101/2025.07.08.663731
